Measured values: paper PMC9262599

The chains behind the UniProt entries cited, without tags or fusion partners.
UniProt Q5I7M6, entry or part of it: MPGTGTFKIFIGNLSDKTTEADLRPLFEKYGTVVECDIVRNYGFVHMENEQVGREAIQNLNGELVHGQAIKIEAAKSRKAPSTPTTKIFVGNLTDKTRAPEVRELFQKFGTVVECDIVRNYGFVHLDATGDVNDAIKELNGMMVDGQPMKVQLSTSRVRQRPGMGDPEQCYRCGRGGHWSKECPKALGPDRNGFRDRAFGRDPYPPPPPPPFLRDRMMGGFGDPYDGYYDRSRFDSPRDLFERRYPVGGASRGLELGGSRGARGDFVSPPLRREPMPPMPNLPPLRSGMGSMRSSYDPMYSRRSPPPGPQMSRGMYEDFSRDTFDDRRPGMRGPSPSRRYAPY

Target: BmLARK (Bombyx mori) (UniProt Q5I7M6)
Test: EMSA
Conditions: pyridostatin (PDS) 1-3 uM, added before or after binding; 10 mM Tris pH 7.5, 50 mM KCl, 1 mM DTT, room temperature, 20 min; 2 uM probe, 2 ug BmLARK or 1 ug BG4 in 20 ul; 4% PAGE on ice; recombinant protein; protein details: GST (pGEX-6P-1); label: 5' 6-FAM; folded or branched DNA

“GTCGGGAAGGGGTTGGGGGGGGGTAGGTT [FAM-BmACBP G4 (folded with K+)]”: binds more weakly.

Construct, isoform or probe ends are uncertain for at least one entry. A weaker result is weaker than the reference pair of the same experiment.
